Data on two molecules can be found in US20240182592A1.

These are yes or no findings as the source states them, for the method shown. Some results given as binding are weak or reduced against the parent protein; the word gives no strength. Where a sequence is shown, tags or fusion partners need not be part of it.

The target in assay [1] is cynomolgus monkey BCMA protein (cynomolgus monkey). The assay is described as follows: cross-reactivity with cynomolgus monkey BCMA protein, told again in the epitope discussion.
The target is the same in assay [2]. The assay is described as follows: SPR (Biacore T200).

B1: 1A10-Fc (antibody, human IgG1, V domains shown)
VH: QVQLVESGGGSVQAGGSLRLSCAASGYSSNVACMAWYRQAPGKEREWVATIVADFGTTNYAASVKGRFTISQDNAKNTVYLQMNSLKPEDSAMYYCAATQRGGIDWCDEINYWGQGTLVTVSS
As to B1, the binding entry in assay [1] and in assay [2] was “binds” in each case.

B2: 1A11-Fc (antibody, human IgG1, V domains shown)
VH: QVQLVESGGGSVQAGGSLRLSCAASGVTFNSACMGWFRQAPGKEREGVARIETGYGGTVYADSVKGRFTISRDNAKNTVYLQMNSLKPEDTAMYYCAAKRSWCTPTWWHELDYNYWGQGTQVTVSS
Turning to B2, the binding result in assay [1] and in assay [2] was “binds” throughout.
